Results: US9353115B2, “Immune system modulators” (JANUS BIOTHERAPEUTICS, INC., priority 2011, dated 2016)
For at least one compound, name, drawing or mass did not settle the structure.

By UniProt entry, the sequences of proteins in these tests, tags left out. Residues count along the entry.
UniProt Q9EQU3, 26-1032: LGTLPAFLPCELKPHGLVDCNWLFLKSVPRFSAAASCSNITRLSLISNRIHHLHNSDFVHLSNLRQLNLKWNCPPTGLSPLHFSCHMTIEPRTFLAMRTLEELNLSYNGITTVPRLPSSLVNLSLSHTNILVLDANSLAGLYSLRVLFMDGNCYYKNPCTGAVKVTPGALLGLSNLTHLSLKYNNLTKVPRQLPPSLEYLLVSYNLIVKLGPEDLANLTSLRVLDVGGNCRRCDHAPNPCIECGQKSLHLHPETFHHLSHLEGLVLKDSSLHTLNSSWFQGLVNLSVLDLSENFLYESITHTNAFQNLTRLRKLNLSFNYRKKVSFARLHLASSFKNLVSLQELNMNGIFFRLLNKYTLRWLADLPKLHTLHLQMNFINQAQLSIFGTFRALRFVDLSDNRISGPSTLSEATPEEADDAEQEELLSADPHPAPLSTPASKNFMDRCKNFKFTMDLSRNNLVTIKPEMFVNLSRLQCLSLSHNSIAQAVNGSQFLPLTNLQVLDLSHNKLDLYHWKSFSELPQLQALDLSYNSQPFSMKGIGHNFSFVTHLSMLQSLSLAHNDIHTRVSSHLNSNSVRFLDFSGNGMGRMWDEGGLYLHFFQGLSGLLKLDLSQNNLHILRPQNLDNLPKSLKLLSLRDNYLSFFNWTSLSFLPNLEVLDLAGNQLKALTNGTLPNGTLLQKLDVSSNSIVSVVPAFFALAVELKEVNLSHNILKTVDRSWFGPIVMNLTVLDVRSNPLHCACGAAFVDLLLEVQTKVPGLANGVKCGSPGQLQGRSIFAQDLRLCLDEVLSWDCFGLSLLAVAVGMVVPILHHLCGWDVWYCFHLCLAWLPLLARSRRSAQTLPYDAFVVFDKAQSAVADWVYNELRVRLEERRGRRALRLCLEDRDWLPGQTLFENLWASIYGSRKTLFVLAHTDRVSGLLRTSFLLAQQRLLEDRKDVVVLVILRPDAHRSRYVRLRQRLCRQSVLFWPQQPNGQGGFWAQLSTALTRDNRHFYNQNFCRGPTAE

Molecular target: TLR9 (Mus musculus (Mouse), UniProt Q9EQU3)
Assay: In vivo TLR knockdown: serum IL-12 after CpG ODN 1668 TLR9 agonist injection in C57Bl/6J mice
Settings: male C57Bl/6J mice; single intraperitoneal dose; CpG ODN 1668 i.p. 1 hr later; serum IL-12 ELISA 3 hours post agonist
Experimental: The Effects of Test Articles on Toll-Like Receptor (TLR) Knockdown Following a Single Intraperitoneal Dose to Male C57Bl/6 Mice.
Toll-Like Receptor (TLR) knockdown effect of test articles was evaluated in a C57Bl/6J mouse. Primary end points included a terminal blood collection for analysis of cytokine production in response to CpG-DNA TLR9 agonist injection. Male C57Bl/6J mice, at ˜8 weeks of age from Jackson Laboratories were used. Test groups were 3 mice per treatment group and the groups were administered test article in a series of descending doses within the range of 400 μg to 10 μg. Test article treatment was dosed at T=0 hr by intraperitoneal injection. Agonist (CpG ODN 1668) treatment was dosed one hour later, T=1 hr by intraperitoneal injection. Necropsy was performed 3 hours post agonist treatment, T=4 hr. Blood samples were collected into serum separator tubes, allowed to clot at room temperature for at least 20 minutes, centrifuged at ambient temperature at 3000 g for 10 minutes, and the serum was extracted. ELISA was performed to determine murine IL-12 levels following manufacture's protocol (BioLegend Inc.). Serum IL-12 levels were calculated and plotted versus administered dose of antagonist and inhibitory dose at 50% (ID50) was determined.

For CN1CCN(CCNc2nc(-c3ccccc3)nc3c2ncn3CCN2CCN(C)CC2)CC1 [Example 60], the “In vivo TLR antagonism ID50 (inhibitory dose at 50% of serum IL-12)” value was 174 µg.
